# Results are given in words; binding and its absence hold for the method and conditions named. Binding seen in cells or lysates may run through a third protein. Some binding calls cover weakened binding; strength is not graded here.
# B1: Aurora kinase A (enzyme, UniProt O14965 1-403)
# chain: MDRSKENCISGPVKATAPVGGPKRVLVTQQFPCQNPLPVNSGQAQRVLCPSNSSQRIPLQAQKLVSSHKPVQNQKQKQLQATSVPHPVSRPLNNTQKSKQPLPSAPENNPEEELASKQKNEESKKRQWALEDFEIGRPLGKGKFGNVYLAREKQSKFILALKVLFKAQLEKAGVEHQLRREVEIQSHLRHPNILRLYGYFHDATRVYLILEYAPLGTVYRELQKLSKFDEQRTATYITELANALSYCHSKRVIHRDIKPENLLLGSAGELKIADFGWSVHAPSSRRTTLCGTLDYLPPEMIEGRMHDEKVDLWSLGVLCYEFLVGKPPFEANTYQETYKRISRVEFTFPDFVTEGARDLISRLLKHNPSQRPMLREVLEHPWITANSSKPSNCQNKESASKQS
# Biological target: T1, Forkhead box subclass M1 (human) (UniProt Q08050)
# T1 sequence: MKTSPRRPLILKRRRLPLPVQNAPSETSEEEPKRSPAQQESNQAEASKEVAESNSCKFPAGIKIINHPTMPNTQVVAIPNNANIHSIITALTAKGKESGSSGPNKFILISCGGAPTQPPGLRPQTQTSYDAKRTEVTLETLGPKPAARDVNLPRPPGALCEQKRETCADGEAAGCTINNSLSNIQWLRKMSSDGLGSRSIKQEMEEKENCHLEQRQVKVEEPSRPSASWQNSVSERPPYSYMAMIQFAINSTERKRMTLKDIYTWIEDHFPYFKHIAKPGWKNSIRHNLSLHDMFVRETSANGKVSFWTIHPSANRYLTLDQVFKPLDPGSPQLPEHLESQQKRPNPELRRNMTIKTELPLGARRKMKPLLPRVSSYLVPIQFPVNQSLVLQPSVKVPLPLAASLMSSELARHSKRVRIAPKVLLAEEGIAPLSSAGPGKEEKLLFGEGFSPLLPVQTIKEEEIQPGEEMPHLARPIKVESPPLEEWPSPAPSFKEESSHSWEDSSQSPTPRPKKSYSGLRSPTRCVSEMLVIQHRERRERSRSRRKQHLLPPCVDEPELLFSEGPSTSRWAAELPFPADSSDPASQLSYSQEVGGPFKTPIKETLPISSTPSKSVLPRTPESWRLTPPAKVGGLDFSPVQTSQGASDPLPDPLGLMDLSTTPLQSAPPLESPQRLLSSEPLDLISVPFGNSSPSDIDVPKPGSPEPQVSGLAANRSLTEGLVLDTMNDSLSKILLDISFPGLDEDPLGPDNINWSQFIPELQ
# Assay: co-IP; co-IP assay to detect the interaction of AURKA and FOXM1; cell line, precipitating antibody and buffer not told in the shown text
binder,measurement,value
B1,binding,binds

# — PMC5485180
